The source gives many values for each of these; only a part stands here.
Tested on: Rattus norvegicus
Conditions: short-term, duration: 28 days, oral, gavage, F, Sprague-Dawley

Measured: NOEL

Cc1cccc(Nc2cc(Cl)nc(SCC(=O)O)n2)c1C [[4-Chloro-6-(2,3-xylidino)-2-pyrimidinylthio]acetic acid]
25 mg/kg-day: Nonneoplastic effects_Forestomach - Epithelium, hyperplasia | Nonneoplastic effects_Forestomach - Inflammation, chronic active | Nonneoplastic effects_Kidney - Nephropathy, chronic progressive | Nonneoplastic effects_Lymph nodes - Mandibular, atrophy | Nonneoplastic effects_Lymph nodes - Mesenteric, atrophy | Nonneoplastic effects_Nose - Respiratory epithelium, hyperplasia | Nonneoplastic effects_Nose - Respiratory epithelium, inflammation, chronic active | Nonneoplastic effects_Spleen - Atrophy | Nonneoplastic effects_Spleen - Extramedullary hematopoiesis, increased | Nonneoplastic effects_Thymus - Lymphocyte, apoptosis | Nonneoplastic effects_Thyroid gland - Follicular cell hypertrophy
